Where “and” joins values, the source holds several entries; their conditions need not be identical. Identical values can stand only once. Further values from the same series stand in other lists.
Experiment: Clinical bioequivalence study: plasma concentrations (LC-MS-MS) and noncompartmental PK after oral tablet
Assay type: in vivo, human

Row | SMILES | Concentration, individual subjects (clonazepam 2 mg oral, 0 h, one value per subject (A1-A6, A8, B1-B8; B5 consumed alcohol)) [ng/mL] | Concentration, individual subjects (clonazepam 2 mg oral, 0.5 h, one value per subject (A1-A6, A8, B1-B8; B5 consumed alcohol)) | Concentration, individual subjects (clonazepam 2 mg oral, 1 h, one value per subject (A1-A6, A8, B1-B8; B5 consumed alcohol)) | Concentration, individual subjects (clonazepam 2 mg oral, 1.5 h, one value per subject (A1-A6, A8, B1-B8; B5 consumed alcohol)) | Concentration, individual subjects (clonazepam 2 mg oral, 2 h, one value per subject (A1-A6, A8, B1-B8; B5 consumed alcohol)) | Concentration, individual subjects (clonazepam 2 mg oral, 3 h, one value per subject (A1-A6, A8, B1-B8; B5 consumed alcohol)) | Concentration, individual subjects (clonazepam 2 mg oral, 72 h, one value per subject (A1-A6, A8, B1-B8; B5 consumed alcohol)) | Concentration, individual subjects (clonazepam 2 mg oral, 96 h, one value per subject (A1-A6, A8, B1-B8; B5 consumed alcohol)) | half-life (human, Referent clinical, midazolam 15 mg tablet oral, N = 15, mean ±1 SD) [min] | Concentration, individual subjects (midazolam 15 mg oral, 0 h, one value per subject (columns A1-A8, B1-B7)) [ng/mL] | Concentration, individual subjects (midazolam 15 mg oral, 0.25 h, one value per subject (columns A1-A8, B1-B7)) | Concentration, individual subjects (midazolam 15 mg oral, 0.5 h, one value per subject (columns A1-A8, B1-B7)) | Concentration, individual subjects (midazolam 15 mg oral, 1 h, one value per subject (columns A1-A8, B1-B7)) | Concentration, individual subjects (midazolam 15 mg oral, 1.5 h, one value per subject (columns A1-A8, B1-B7)) | Concentration, individual subjects (midazolam 15 mg oral, 2 h, one value per subject (columns A1-A8, B1-B7)) | Concentration, individual subjects (midazolam 15 mg oral, 12 h, one value per subject (columns A1-A8, B1-B7)) | Concentration, individual subjects (midazolam 15 mg oral, 24 h, one value per subject (columns A1-A8, B1-B7))
1 | O=C1CN=C(c2ccccc2Cl)c2cc([N+](=O)[O-])ccc2N1 [Clonazepam, clonazepam] | 0.00 | 3.46 ng/mL and 0.00 ng/mL (3×) and 5.06 ng/mL and 2.24 ng/mL and 1.91 ng/mL and 6.20 ng/mL and 23.99 ng/mL and 16.46 ng/mL and 2.94 ng/mL and 5.71 ng/mL and 16.30 ng/mL and 7.53 ng/mL and 7.99 ng/mL | 8.36 ng/mL and 9.10 ng/mL and 20.63 ng/mL and 7.46 ng/mL and 13.61 ng/mL and 4.16 ng/mL and 15.30 ng/mL and 10.14 ng/mL and 15.98 ng/mL and 14.52 ng/mL and 11.10 ng/mL and 10.42 ng/mL and 21.63 ng/mL and 21.76 ng/mL and 10.64 ng/mL | 16.41 ng/mL and 12.70 ng/mL and 19.41 ng/mL and 8.14 ng/mL and 10.90 ng/mL and 7.64 ng/mL and 15.78 ng/mL and 10.64 ng/mL and 15.18 ng/mL and 15.23 ng/mL and 12.10 ng/mL and 10.61 ng/mL and 19.81 ng/mL and 17.43 ng/mL and 10.27 ng/mL | 12.50 ng/mL and 15.87 ng/mL and 9.86 ng/mL and 9.89 ng/mL and 9.44 ng/mL and 15.05 ng/mL and 12.86 ng/mL and 14.31 ng/mL and 17.65 ng/mL and 9.65 ng/mL and 12.70 ng/mL and 17.45 ng/mL and 15.53 ng/mL and 10.12 ng/mL | 12.12 ng/mL and 13.58 ng/mL and 10.03 ng/mL and 10.75 ng/mL and 8.92 ng/mL and 14.20 ng/mL and 13.87 ng/mL and 14.07 ng/mL and 16.77 ng/mL and 11.10 ng/mL and 11.99 ng/mL and 17.52 ng/mL and 12.48 ng/mL and 10.36 ng/mL | 3.01 ng/mL and 3.37 ng/mL and 4.29 ng/mL and 1.96 ng/mL and 2.81 ng/mL and 2.77 ng/mL and 3.55 ng/mL and 2.75 ng/mL and 3.60 ng/mL and 4.31 ng/mL and 3.99 ng/mL and 2.51 ng/mL and 3.02 ng/mL and 1.92 ng/mL | 1.80 ng/mL and 1.86 ng/mL and 2.72 ng/mL and 1.22 ng/mL and 1.92 ng/mL and 1.68 ng/mL (2×) and 2.60 ng/mL and 1.45 ng/mL and 2.85 ng/mL and 2.43 ng/mL and 1.41 ng/mL and 1.01 ng/mL | – | – | – | – | – | – | – | – | –
2 | Cc1ncc2n1-c1ccc(Cl)cc1C(c1ccccc1F)=NC2 [Midazolam, midazolam] | – | – | – | – | – | – | – | – | 224 ± 57.6 | 0.00 | 11.33 ng/mL and 49.30 ng/mL and 31.63 ng/mL and 11.20 ng/mL and 10.52 ng/mL and 5.51 ng/mL and 12.92 ng/mL and 7.99 ng/mL and 0.00 ng/mL (2×) and 32.55 ng/mL and 3.56 ng/mL and 2.21 ng/mL and 2.75 ng/mL and 1.68 ng/mL | 53.19 ng/mL and 103.16 ng/mL and 124.33 ng/mL and 150.12 ng/mL and 87.17 ng/mL and 8.96 ng/mL and 93.49 ng/mL and 91.64 ng/mL and 85.93 ng/mL and 99.99 ng/mL and 121.73 ng/mL and 24.18 ng/mL and 15.68 ng/mL and 173.57 ng/mL and 119.95 ng/mL | 29.56 ng/mL and 42.98 ng/mL and 75.64 ng/mL and 65.70 ng/mL and 51.74 ng/mL and 68.51 ng/mL and 57.09 ng/mL and 34.56 ng/mL and 67.49 ng/mL and 41.79 ng/mL and 59.44 ng/mL and 55.30 ng/mL and 16.68 ng/mL and 111.37 ng/mL and 70.63 ng/mL | 42.43 ng/mL and 38.94 ng/mL and 45.93 ng/mL and 49.11 ng/mL and 42.49 ng/mL and 49.51 ng/mL and 52.60 ng/mL and 23.22 ng/mL and 68.83 ng/mL and 36.03 ng/mL and 42.37 ng/mL and 43.88 ng/mL and 47.01 ng/mL and 75.96 ng/mL and 43.80 ng/mL | 67.36 ng/mL and 43.93 ng/mL and 42.48 ng/mL and 35.22 ng/mL and 40.88 ng/mL and 56.04 ng/mL and 45.88 ng/mL and 20.89 ng/mL and 48.39 ng/mL and 41.26 ng/mL and 88.44 ng/mL and 33.26 ng/mL and 31.38 ng/mL and 84.58 ng/mL and 36.49 ng/mL | 2.18 ng/mL and 4.42 ng/mL and 2.40 ng/mL and 1.94 ng/mL and 2.35 ng/mL and 1.38 ng/mL and 4.14 ng/mL and 0.51 ng/mL and 3.56 ng/mL and 8.21 ng/mL and 10.47 ng/mL | 0.77 ng/mL and 0.00 ng/mL (9×) and 0.11 ng/mL and 0.63 ng/mL and 1.34 ng/mL and 1.56 ng/mL and 1.70 ng/mL

From PMC6118387, “In silico drug absorption tract: An agent-based biomimetic model for human oral drug absorption” (PLoS ONE, 2018)
